From article PMC5327418

By UniProt entry, the sequences of proteins in these tests, tags left out.
UniProt P32569: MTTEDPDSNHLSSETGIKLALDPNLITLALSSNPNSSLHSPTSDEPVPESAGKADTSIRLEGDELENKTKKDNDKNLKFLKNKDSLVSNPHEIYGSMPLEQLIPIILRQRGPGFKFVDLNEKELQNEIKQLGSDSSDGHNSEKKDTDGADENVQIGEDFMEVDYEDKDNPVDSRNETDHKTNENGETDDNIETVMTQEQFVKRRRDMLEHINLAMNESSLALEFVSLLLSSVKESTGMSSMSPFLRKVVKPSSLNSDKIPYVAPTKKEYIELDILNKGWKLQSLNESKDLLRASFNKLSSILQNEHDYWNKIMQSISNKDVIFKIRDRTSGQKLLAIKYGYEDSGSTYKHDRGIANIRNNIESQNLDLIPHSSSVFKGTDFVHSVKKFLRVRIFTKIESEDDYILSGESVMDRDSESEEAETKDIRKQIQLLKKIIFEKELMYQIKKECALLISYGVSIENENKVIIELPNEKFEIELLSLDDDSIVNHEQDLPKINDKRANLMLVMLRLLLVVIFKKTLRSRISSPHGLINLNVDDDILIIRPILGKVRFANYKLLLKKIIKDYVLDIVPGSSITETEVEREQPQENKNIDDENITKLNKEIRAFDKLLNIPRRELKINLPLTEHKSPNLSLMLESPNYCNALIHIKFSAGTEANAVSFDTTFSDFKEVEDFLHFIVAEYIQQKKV

Biological target: Med17-HA (S. cerevisiae (endogenous in S288c)) (UniProt P32569)
Assay: affinity purification with mass spectrometry; CoIP of Med17-HA on anti-HA magnetic beads from cryoground yeast lysate, 2 h at 4 °C; 20 mM HEPES pH 7.5, 300 mM KOAc, 10% glycerol, 0.01% NP-40, 6 mM MnSO4, 1 mM DTT, Cyanase nuclease; parallel control CoIP from 15N-labelled wild type cells, mixing after purification (MAP); GeLC-MS/MS, three biological replicates

binding	Binder
binds	Sgf29 (protein, UniProt P25554 1-259) MDGYWDVVVSSLQDIYNANEVIPFDDELQTKKLNFLNMSKDQLQLHLNTFQEHMENVNRVHRILDNVRSNLSLMLNQSREEKSEENTEDAEEGEGTRMALSQGKKAVGKVGRSYWTSEYNPNAPILVGSEVAYKPRRGSADGEWIQCEVLKVVADGTRFEVRDPEPDELGNSGKVYKCNRKELLLIPPGFPTKNYPPGTKVLARYPETTTFYPAIVIGTKRDGTCRLRFDGEEEVDKETEVTRRLVLPSPTALANLARK
binds	Spt3 (protein, UniProt P06844 1-337) MMDKHKYRVEIQQMMFVSGEINDPPVETTSLIEDIVRGQVIEILLQSNKTAHLRGSRSILPEDVIFLIRHDKAKVNRLRTYLSWKDLRKNAKDQDASAGVASGTGNPGAGGEDDLKKAGGGEKDEKDGGNMMKVKKSQIKLPWELQFMFNEHPLENNDDNDDMDEDEREANIVTLKRLKMADDRTRNMTKEEYVHWSDCRQASFTFRKNKRFKDWSGISQLTEGKPHDDVIDILGFLTFEIVCSLTETALKIKQREQVLQTQKDKSQQSSQDNTNFEFASSTLHRKKRLFDGPENVINPLKPRHIEEAWRVLQTIDMRHRALTNFKGGRLSSKPIIM
binds	Spt8 (protein, UniProt P38915 1-602) MDEVDDILINNQVVDDEEDDEEMLSGLENDSKQDLEGNDDGGEDEEDDDDDDEDDDDDEDEREDDDEQEDDDGEDDAARMDKTATPTNEHQHDEQKAAAAGAGGAGDSGDAVTKIGSEDVKLSDVDGGVGSREASSSTHEASANGEVYEYYKHMLNAAQIADSYNIYPTAAIPIQTHVNALAVSRGLKYLFLGGSDGYIRKYDLLNTLEGKLSLTILQKHSLAESIQNAGILQSYWENEIPQKKSEMKLSANKTDYEPKVSPVHSLEVQSECLFILSGLQNGGITMQGVRYMEGSIAHYFKGRNGHTQIVNILRLNGQEDRFLSGSWDKRLLEWDLQTGDIVNEFKKSRSELSSLEMRPLYSSVDVSGNVNSGKENENADDDMDSLFGDEDEDEKQDAGNEPVETGDGSNGEENKEQISEESLNIVYDESVFMTSGLNGSVHIWDRRMTQSPALSLERGAGVPPWCLSACWGVDGDHVYAGRRNACVEQFDLKMPSKPIHNLKLPSISGPVSCVKAMPNNKHLLCASRDNIRLYNVEIAVDASNSTTKSSKVPFLIVPGHHGGIISNLYLDPTSRFIISTSGNRGWQGNSTDTTLIYDIDLE
binds	Ngg1 (protein, UniProt P32494 1-702) MPRHGRRGKLPKGEKLPKKEGGDNTPSKLLSSMLKTLDLTFERDIGMLNGKSVRSIPNKKTLLELQSQLDSLNEILGTIARGDQETIEALRKIRDSKNEKQANDEKQETSNADGQHESSTATEETNIIDKGVQSPPKPPPSNEISGTIENDVESIKQAADNMAKEEINEDKDLQVHRDQPREKRPFDSETENRATENENTQRPDNKKQKIDVDKMENDPTVKNPKSEFVVSQTLPRAAAALGLFNEEGLESTGEDFLKKKYNVASYPTNDLKDLLPGELPDMDFSHPKPTNQIQFNTFLAFVENFFKDLSDDNLKFLKMKYIIPDSLQFDKTYDPEVNPFIIPKLGPLYTDVWFKDENDKNSAYKKPSPYSNDASTILPKKSANELDDNALESGSISCGPLLSRLLSAVLKDDNDKSELQSSKIIRDGGLPRTGGEDDIQSFRNNNNDTVDMTLSQENGPSVQTPDNDIDEEASFQAKLAENKGSNGGTTSTLPQQIGWITNGINLDYPTFEERLKRELKYVGIYMNLPKDENNPNSDDPDWVTGREDDEISAELRELQGTLKQVTKKNQKRKAQLIPLVERQLAWQEYSSILEDLDKQIDQAYVKRIRVPKKRKKHHTAASNNVNTGTTSQIAQQKAANSSLKSLLDKRQRWINKIGPLFDKPEIMKRIPNESVFKDMDQEEDEDEADVFAQNTNKDVELN
binds	Hfi1 (protein, UniProt Q12060 1-488) MSAIQSPAPKPLQPTYPAASPASTNAYMKPGLIGSPAVSNHTEPNNGNNETAEPQGPNQRIDLGAMIEELTSLLGKESWTKYAQIISLFILGKLSRKELSNELELVFSPSAASLEKSNTNHHHSLVRLHNQLLLGIFANSLRENPLGRNGNESSWGFGNGSNNPNNKLKRINKHNSQIEVYKKIVMSLPLNDRNRLKMITKEAGKRGFIFCSVFQARLNNIPKIPIVTNPESLKRVKSNNLKTPLEWSQDIMNGFNVPLASESHSLPDTDSFYLRMVGIAREHGLVGTVDARCVELISLALDQYLKNIIEFTIDTVRYRRKKYSDYYDLNESGLYKSVSEMAADKRDAKIKQLDDDKNEDECADEAKSINNGNNSSKDDIGDISMSSITKAGEAVNEELHENRTISLTNEDIYDSLSIFPNLVEPSGSYYALTNLGLVNDDELVDMKSNIDDLPDFLNEKPTFTPLDERNVGTRHELNWLIKGILTED
binds	Rad25 (protein, UniProt Q00578 1-843) MTDVEGYQPKSKGKIFPDMGESFFSSDEDSPATDAEIDENYDDNRETSEGRGERDTGAMVTGLKKPRKKTKSSRHTAADSSMNQMDAKDKALLQDTNSDIPADFVPDSVSGMFRSHDFSYLRLRPDHASRPLWISPSDGRIILESFSPLAEQAQDFLVTIAEPISRPSHIHEYKITAYSLYAAVSVGLETDDIISVLDRLSKVPVAESIINFIKGATISYGKVKLVIKHNRYFVETTQADILQMLLNDSVIGPLRIDSDHQVQPPEDVLQQQLQQTAGKPATNVNPNDVEAVFSAVIGGDNEREEEDDDIDAVHSFEIANESVEVVKKRCQEIDYPVLEEYDFRNDHRNPDLDIDLKPSTQIRPYQEKSLSKMFGNGRARSGIIVLPCGAGKTLVGITAACTIKKSVIVLCTSSVSVMQWRQQFLQWCTLQPENCAVFTSDNKEMFQTESGLVVSTYSMVANTRNRSHDSQKVMDFLTGREWGFIILDEVHVVPAAMFRRVVSTIAAHAKLGLTATLVREDDKIGDLNFLIGPKLYEANWMELSQKGHIANVQCAEVWCPMTAEFYQEYLRETARKRMLLYIMNPTKFQACQFLIQYHERRGDKIIVFSDNVYALQEYALKMGKPFIYGSTPQQERMNILQNFQYNDQINTIFLSKVGDTSIDLPEATCLIQISSHYGSRRQEAQRLGRILRAKRRNDEGFNAFFYSLVSKDTQEMYYSTKRQAFLVDQGYAFKVITHLHGMENIPNLAYASPRERRELLQEVLLKNEEAAGIEVGDDADNSVGRGSNGHKRFKSKAVRGEGSLSGLAGGEDMAYMEYSTNKNKELKEHHPLIRKMYYKNLKK
binds	Ccl1 (protein, UniProt P37366 1-393) MTDIQLNGKSTLDTPSATMSAKEKEAKLKSADENNKPPNYKRISDDDLYRHSSQYRMWSYTKDQLQEKRVDTNARAIAYIEENLLKFREAHNLTEEEIKVLEAKAIPLTMEEELDLVNFYAKKVQVIAQHLNLPTEVVATAISFFRRFFLENSVMQIDPKSIVHTTIFLACKSENYFISVDSFAQKAKSTRDSVLKFEFKLLESLKFSLLNHHPYKPLHGFFLDIQNVLYGKVDLNYMGQIYDRCKKRITAALLTDVVYFYTPPQITLATLLIEDEALVTRYLETKFPSREGSQESVPGNEKEEPQNDASTTEKNKEKSTESEEYSIDSAKLLTIIRECKSIIEDCKPPSTEEAKKIAAKNYYCQNPSTLIQKLKRKLNGEDTSSTVEKKQKT
binds	Rad3 (protein, UniProt P06839 1-778) MKFYIDDLPVLFPYPKIYPEQYNYMCDIKKTLDVGGNSILEMPSGTGKTVSLLSLTIAYQMHYPEHRKIIYCSRTMSEIEKALVELENLMDYRTKELGYQEDFRGLGLTSRKNLCLHPEVSKERKGTVVDEKCRRMTNGQAKRKLEEDPEANVELCEYHENLYNIEVEDYLPKGVFSFEKLLKYCEEKTLCPYFIVRRMISLCNIIIYSYHYLLDPKIAERVSNEVSKDSIVIFDEAHNIDNVCIESLSLDLTTDALRRATRGANALDERISEVRKVDSQKLQDEYEKLVQGLHSADILTDQEEPFVETPVLPQDLLTEAIPGNIRRAEHFVSFLKRLIEYLKTRMKVLHVISETPKSFLQHLKQLTFIERKPLRFCSERLSLLVRTLEVTEVEDFTALKDIATFATLISTYEEGFLLIIEPYEIENAAVPNPIMRFTCLDASIAIKPVFERFSSVIITSGTISPLDMYPRMLNFKTVLQKSYAMTLAKKSFLPMIITKGSDQVAISSRFEIRNDPSIVRNYGSMLVEFAKITPDGMVVFFPSYLYMESIVSMWQTMGILDEVWKHKLILVETPDAQETSLALETYRKACSNGRGAILLSVARGKVSEGIDFDHQYGRTVLMIGIPFQYTESRILKARLEFMRENYRIRENDFLSFDAMRHAAQCLGRVLRGKDDYGVMVLADRRFSRKRSQLPKWIAQGLSDADLNLSTDMAISNTKQFLRTMAQPTDPKDQEGVSVWSYEDLIKHQNSRKDQGGFIENENKEGEQDEDEDEDIEMQ
binds	Ada2 (protein, UniProt Q02336 1-434) MSNKFHCDVCSADCTNRVRVSCAICPEYDLCVPCFSQGSYTGKHRPYHDYRIIETNSYPILCPDWGADEELQLIKGAQTLGLGNWQDIADHIGSRGKEEVKEHYLKYYLESKYYPIPDITQNIHVPQDEFLEQRRHRIESFRERPLEPPRKPMASVPSCHEVQGFMPGRLEFETEFENEAEGPVKDMVFEPDDQPLDIELKFAILDIYNSRLTTRAEKKRLLFENHLMDYRKLQAIDKKRSKEAKELYNRIKPFARVMTAQDFEEFSKDILEELHCRARIQQLQEWRSNGLTTLEAGLKYERDKQARISSFEKFGASTAASLSEGNSRYRSNSAHRSNAEYSQNYSENGGRKKNMTISDIQHAPDYALLSNDEQQLCIQLKILPKPYLVLKEVMFRELLKTGGNLSKSACRELLNIDPIKANRIYDFFQSQNWM
binds	Spt20 (protein, UniProt P50875 1-604) MSANSPTGNDPHVFGIPVNATPSNMGSPGSPVNVPPPMNPAVANVNHPVMRTNSNSNANEGTRTLTREQIQQLQQRQRLLLQQRLLEQQRKQQALQNYEAQFYQMLMTLNKRPKRLYNFVEDADSILKKYEQYLHSFEFHIYENNYKICAPANSRLQQQQKQPELTSDGLILTKNNETLKEFLEYVARGRIPDAIMEVLRDCNIQFYEGNLILQVYDHTNTVDVTPKENKPNLNSSSSPSNNNSTQDNSKIQQPSEPNSGVANTGANTANKKASFKRPRVYRTLLKPNDLTTYYDMMSYADNARFSDSIYQQFESEILTLTKRNLSLSVPLNPYEHRDMLEETAFSEPHWDSEKKSFIHEHRAESTREGTKGVVGHIEERDEFPQHSSNYEQLMLIMNERTTTITNSTFAVSLTKNAMEIASSSSNGVRGASSSTSNSASNTRNNSLANGNQVALAAAAAAAAVGSTMGNDNNQFSRLKFIEQWRINKEKRKQQALSANINPTPFNARISMTAPLTPQQQLLQRQQQALEQQQNGGAMKNANKRSGNNATSNNNNNNNNLDKPKVKRPRKNAKKSESGTPAPKKKRMTKKKQSASSTPSSTTMS

These are yes or no findings as the source states them, for the method shown. Binding seen in cells or lysates may run through a third protein. A yes stands for co-enrichment or nearness to the bait. Other partners may have been found.
